Here are results for 37 compounds from PubChem BioAssay AID2685 (National Center for Advancing Translational Sciences (NCATS), 2010).

The assay can be described thus: qHTS Assay for Lipid Storage Modulators in Drosophila S3 Cells.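 As to cell number change: cells counted by Cell Tracker Red CMTPX staining in the red channel.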 Particulars: BODIPY lipid droplet fluorescence, 18-24 h; for cell number change: measured here: cell count max response, cells fed with added oleic acid. The gist of the method:
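Drosophila S3 cells got compounds at several concentrations plus oleic acid (400 uM solution). Laser-scanning cytometry with 488 nm excitation read lipid droplets at 500-530 nm and cells at 575-640 nm. Percent activity was relative to 20 uM Triacsin C.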

The mark [1] stands for this setting: measured here: cell number channel AC50, cells fed with added oleic acid.
[2] abbreviates: measured here: lipid fluorescence (Fed channel) AC50, cells fed with added oleic acid.

Broadly, the AC50 is the concentration giving half of the maximal activity seen. A lower AC50 goes with activity at low concentration.

Some of the results follow. The main result of the screen is listed elsewhere. These columns were measured beside it and carry no call. Most of these compounds were active or inconclusive in the main read-out, so they are no random draw. Words in brackets tell the shape of the fitted curve; partial curves, single points and poor fits give uncertain potencies.

`CCOC(=O)N1CCN(C(=O)C(CC(C)C)NS(=O)(=O)c2ccc3c(c2)oc(=O)n3C)CC1` (centres undefined): the concentration at half-maximal activity (AC50) under setting [1] was 10.3 µM [rising, partial curve].

As for `C[n+]1c(-c2ccccc2)c2cc(N)ccc2c2ccc(N)cc21`, the cell number change is -15.2%. As for `O=C(Oc1c(Cl)cc(Cl)c2ccccc12)N1CCCCC1`, the AC50 is, setting by setting: under setting [1], 0.13 µM [falling, full curve, poor fit]; under setting [2], 1.16 µM [falling, full curve].

Take `O=C(Cn1ncc2c3ccccc3n(Cc3ccccc3F)c2c1=O)N1CCC2(CC1)OCCO2`: the cell number change is -18%. Moreover, the concentration at half-maximal activity (AC50) under setting [2] is 1.03 µM [rising, single point]. Take `CCOc1ccc(C2SCC(=O)Nc3c2c(C)nn3C2CCOC(C)(C)C2)cc1` (centres undefined): the cell number change worked out at 7.28%. The concentration at half-maximal activity (AC50) under setting [2] is 32.6 µM [falling, single point].

Consider `CN1C(=O)N(C)C(=O)C2(Cc3c(nc4ccccn4c3=O)N3CCc4ccccc4C32)C1=O` (centres undefined), for which the cell number change was 1.43%. Besides, the concentration at half-maximal activity (AC50) under setting [2] was 0.00461 µM [rising, full curve, poor fit].

As to `Clc1ccc(OCC#CCN2CCOCC2)cc1`, the cell number change is -10%.

For the compound `C1=C(c2c[nH]c3ccccc23)CCN(Cc2ccccc2)C1`, the cell number change is -40.1%. Further, the AC50 under setting [1] was 7.31 µM [falling, partial curve]. Moreover, the AC50 under setting [2] was 5.8 µM [falling, full curve]. As for `Clc1ccc(NC2=NCCCS2)cc1Cl`, the cell number change is 10.3%. `COC(=O)C1=C(c2ccc(F)cc2OCc2ccccc2)C[C@@H]2CC[C@H]1N2C(=O)N1CCCC1`: the AC50 under setting [2] was 16.4 µM [falling, single point].

Turning to `O=C(CN1CCN(C(=O)COc2cccc(F)c2)CC1)Nc1ccc(Cl)c(C(F)(F)F)c1`, the cell number change is -31.7%. Further, the AC50 under setting [1] was 29.1 µM [falling, single point].

Regarding `COC(=O)C1=C(c2ccc(OC(F)(F)F)cc2)C[C@@H]2CC[C@H]1N2C(=O)NCC1CC1`, the cell number change was -17.2%. Also, the AC50 under setting [2] is 0.146 µM [rising, single point]. For `CN[C@H]1C[C@H]2O[C@@](C)([C@H]1OC)n1c3ccccc3c3c4c(c5c6ccccc6n2c5c31)C(=O)NC4`, the cell number change is -72.4%. Under setting [1], the half-maximal activity concentration (AC50) is 9.2 µM [falling, partial curve]. For the same compound, the AC50 under setting [2] is 8.2 µM [falling, partial curve]. As to `COc1ccc(N=C(C)c2c(O)n(C)c(=O)n(C)c2=O)c(OC)c1`, the cell number change was -17.6%. In addition, the AC50 under setting [2] was 2.91 µM [falling, single point]. `CNC(=S)N1CCn2cccc2C1c1cccnc1` (centres undefined): the cell number change amounted to 11.6%. For `Cc1cccc(N2C(=O)NC(=O)/C(=C\C=C\c3ccco3)C2=O)c1`, the cell number change was -60.9%. The AC50 under setting [1] was 14.6 µM [falling, partial curve]. Under setting [2], the AC50 is 20.6 µM [falling, single point].

As to `CCOC(=O)C1(c2ccccc2)CCN(CCC(=O)Nc2cccc(Br)c2)CC1`, the cell number change is -93.1%. Further, the AC50 under setting [1] was 18.4 µM [falling, partial curve]. Under setting [2], the concentration at half-maximal activity (AC50) was 29.1 µM [falling, single point]. Turning to `CCOc1cc(CNCCc2c[nH]c3ccccc23)cc(Cl)c1OC`, the cell number change was -66.6%. Moreover, the AC50 under setting [1] was 25.9 µM [falling, partial curve]. For the same compound, under setting [2], the concentration at half-maximal activity (AC50) was 20.6 µM [falling, partial curve].

With `CC(C)CCNC(=O)c1c(N)n(Cc2ccc3c(c2)OCO3)c2nc3ccccc3nc12`, the AC50 under setting [1] is 5.8 µM [rising, partial curve, poor fit]. Same read-out and setting: the value for `CCOP(=O)(OCC)C(Nc1cccc([N+](=O)[O-])c1)c1ccc(OC)cc1` (centres undefined) was 0.00411 µM [falling, full curve, poor fit].

Turning to `O=C(CNC(=O)OCc1ccccc1)Nc1ccc(Br)cc1C(=O)c1ccccc1`, the AC50 under setting [2] is 16.4 µM [falling, partial curve]. As to `O=C(CCc1nc(-c2ccccc2F)no1)N1CCC2(CC1)OCCO2`, the cell number change worked out at 105%. For the same compound, the concentration at half-maximal activity (AC50) under setting [1] was 13 µM [rising, partial curve]. Besides, the AC50 under setting [2] is 6.51 µM [rising, single point]. Consider `CCOC(=O)c1cc(C)sc1/N=C/C1C(=O)NC(=S)NC1=O`, for which the cell number change is -21%. Consider `Cc1ccnc(-n2c(C)cc(C=C3C(=O)N(C)C(=S)N(C)C3=O)c2C)c1`, for which, under setting [2], the AC50 was 4.61 µM [falling, full curve, poor fit]. In the case of `COC(=O)C1=C(c2ccc(C(C)=O)cc2)C[C@@H]2CC[C@H]1N2C(=O)NCc1ccc2c(c1)OCO2`, the cell number change was -12%. Moreover, the AC50 under setting [2] is 0.517 µM [rising, full curve, poor fit]. As for `COC(=O)C1=Nc2ccccc2/C1=C\c1c(O)n(-c2ccc(Br)cc2)c(=O)[nH]c1=O`, the cell number change came to 1.84%. In addition, the AC50 under setting [1] is 0.146 µM [rising, full curve, poor fit]. Consider `CCN(CC)P(=O)(c1n(CC)cc[n+]1CC)N(CC)CC`, for which the cell number change was -19.7%. For the same compound, under setting [2], the half-maximal activity concentration (AC50) is 11.6 µM [falling, partial curve]. Consider `CCOc1cc(C=C2C(=O)NC(=O)NC2=O)ccc1OCC(=O)N1CCOCC1`, for which the cell number change amounted to 110%. The AC50 under setting [1] is 25.9 µM [rising, single point]. In the case of `O=c1[nH]c(=S)n(-c2ccccc2Cl)c(O)c1C=NCCN1CCNCC1`, the cell number change was determined as 64.1%. The concentration at half-maximal activity (AC50) under setting [1] was 16.4 µM [rising, partial curve]. As for `CCCCCc1nc2c(c(=O)c3ccccc3n2C)c(=O)n1C1CCCCCC1`, the cell number change was -33.7%. In addition, the concentration at half-maximal activity (AC50) under setting [1] was 18.4 µM [falling, single point]. Further, the AC50 under setting [2] is 25.9 µM [falling, single point].

For `CCOC(=O)C1(c2ccccc2)CCN(CC(=O)Nc2cccc3ccccc23)CC1`, the cell number change was found to be 1.87%. In addition, the AC50 under setting [1] is 6.51 µM [rising, single point]. As for `Cc1ccc2c(c1)CCCN2N=O`, the cell number change came out at 3.22%. In addition, the half-maximal activity concentration (AC50) under setting [2] was 18.4 µM [rising, partial curve]. On to `O=c1[nH]c(O)c(C=Nc2ccc(Cl)c(C(F)(F)F)c2)c(=O)[nH]1`, for which the cell number change worked out at 18.5%. Also, the AC50 under setting [1] is 0.13 µM [rising, full curve, poor fit].

As to `COc1ccc(CCC(=O)N2C[C@H]3C[C@@H](C2)c2cccc(=O)n2C3)cc1`, the cell number change is 18.7%. Further, the concentration at half-maximal activity (AC50) under setting [2] was 4.11 µM [rising, full curve, poor fit]. On to `COc1ccc(-c2n(-c3ccccn3)c3ccccc3[n+]2-c2ccccn2)cc1`, for which the cell number change was -4.6%. In addition, under setting [2], the AC50 was 5.8 µM [falling, partial curve, poor fit]. Turning to `Nc1ccccc1N=Cc1c(O)n(CCC2=CCCCC2)c(=O)[nH]c1=O`, the cell number change is -19.3%. Consider `Cc1cccc(NC(=O)CN2CCN(C(=O)COc3cccc(Br)c3)CC2)c1C`, for which the cell number change turned out to be 4.85%. Moreover, under setting [2], the AC50 is 0.231 µM [rising, partial curve, poor fit].
